The entries are a selection whose mix differs from that of the whole data set. For part of these data: At the low end of the ranking the order means little. The list shows a part of the results. For part of these data: The exact form of the protein is not confirmed.

Sequences of proteins named here, by UniProt entry; tags and fusion partners are left off. A change or cut given only in a name is not applied to a line headed by its entry.
UniProt Q00613: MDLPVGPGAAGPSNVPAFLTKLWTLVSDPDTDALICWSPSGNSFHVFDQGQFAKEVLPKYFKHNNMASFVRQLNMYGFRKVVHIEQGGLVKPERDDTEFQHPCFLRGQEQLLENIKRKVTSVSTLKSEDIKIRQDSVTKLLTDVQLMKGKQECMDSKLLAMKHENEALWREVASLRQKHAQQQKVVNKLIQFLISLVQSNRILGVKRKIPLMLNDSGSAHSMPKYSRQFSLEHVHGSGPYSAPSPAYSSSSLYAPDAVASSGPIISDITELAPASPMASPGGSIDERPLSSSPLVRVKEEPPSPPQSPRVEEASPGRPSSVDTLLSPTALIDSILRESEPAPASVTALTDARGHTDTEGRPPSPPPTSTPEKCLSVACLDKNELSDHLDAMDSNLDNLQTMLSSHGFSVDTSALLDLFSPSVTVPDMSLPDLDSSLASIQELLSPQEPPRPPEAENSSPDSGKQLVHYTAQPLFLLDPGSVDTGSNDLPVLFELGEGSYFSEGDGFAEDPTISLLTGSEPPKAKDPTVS

One assay concerns the target HSF1 (UniProt Q00613). Put plainly: DAPPL (digital affinity profiling via proximity ligation, sequencing). The following applies: 10 mM Tris-HCl pH 7.5, 50 mM NaCl, 1 mM DTT, 4% glycerol, room temperature, 30 min; GST-TFs on glutathione beads, 16-mer random dsDNA library, 0.1% …; high values mean tight binding; double strand, one strand shown; scale: fold enrichment (6-mer frequency, TF over GST control).

The next assay addresses T1, ELF2 (UniProt Q15723).
T1 sequence: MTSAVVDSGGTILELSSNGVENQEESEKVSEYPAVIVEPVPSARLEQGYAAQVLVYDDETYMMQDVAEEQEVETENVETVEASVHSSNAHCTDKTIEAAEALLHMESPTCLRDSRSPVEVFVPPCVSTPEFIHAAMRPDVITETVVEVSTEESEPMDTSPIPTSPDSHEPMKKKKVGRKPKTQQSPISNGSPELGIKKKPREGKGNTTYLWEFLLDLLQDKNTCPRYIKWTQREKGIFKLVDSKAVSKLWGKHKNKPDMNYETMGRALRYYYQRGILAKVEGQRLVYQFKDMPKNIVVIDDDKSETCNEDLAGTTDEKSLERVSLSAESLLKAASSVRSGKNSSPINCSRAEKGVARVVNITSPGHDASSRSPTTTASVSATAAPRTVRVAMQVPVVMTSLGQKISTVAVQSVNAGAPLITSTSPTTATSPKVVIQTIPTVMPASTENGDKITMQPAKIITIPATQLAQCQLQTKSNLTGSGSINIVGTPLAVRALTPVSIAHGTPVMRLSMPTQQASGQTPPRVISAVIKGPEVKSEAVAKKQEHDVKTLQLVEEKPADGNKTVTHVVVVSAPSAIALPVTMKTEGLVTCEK
Described as above. The following applies: 10 mM Tris-HCl pH 7.5, 50 mM NaCl, 1 mM DTT, 4% glycerol, room temperature, 30 min; GST-TFs on glutathione beads, 16-mer random dsDNA library, 0.1% …; high values mean tight binding; double strand, one strand shown; scale: fold enrichment (6-mer frequency, TF over GST control).

On to GACGGA, for which the binding signal with HSF1 was determined as 0.415; in the assay with ELF2 it was 0.534.

Regarding GTCTGT, the binding signal stood at 0.697 with HSF1 and 0.802 in the assay with ELF2.

Consider GCCAGC, for which the binding signal in the assay with HSF1 is 0.666; in the assay with ELF2 it was 0.722.

On to GGCTGT, for which the values for the binding signal with HSF1 and in the assay with ELF2 were 0.676 and 0.779, respectively.

On to GTGGCG, for which the binding signal with HSF1 was 0.581; with ELF2 it was 0.801.

With AGTTGG, the binding signal in the assay with HSF1 amounted to 0.418; with ELF2 it was 0.482.

(Values after PMC7862700.)
